{"source": "PubChem BioAssay AID1259405 – NCATS, 2018", "purpose": "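Mouse-designed siRNAs used to find CHO productivity engineering targets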 (primary screen)", "system": "Chinese hamster CHO-K1 ovary cells with stable secreted eGFP expression", "reagents": "single siRNA against mouse genes, 0.8 pmol siRNA per well (2 µl of 400 nM stock)", "time to read-out": "3 days", "measurement": "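Percent of the per-plate non-targeting control median for intracellular GFP per well by laser scanning cytometry and for cell viability by ATP luminescence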", "scale": "GFP, % of control: higher = more GFP per well, higher productivity; viability (ATP), % of control: higher = more viable cells (more ATP)", "hit rule": "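Called active when intracellular GFP, relative to negative control, is at or above 120%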", "note": "This is one part, drawn at random, of about 50,000 reagents. In the full data, about 4,000 (8%) got an active call. 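Mouse siRNA library applied to hamster cells; one well for each siRNA.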 The numbers tell different reagents against one gene apart."}
{"gene": "2310067E19Rik", "reagent": 1, "GFP, % of control": 105, "viability (ATP), % of control": 87.7, "Call": "inactive"}
{"gene": "2310067E19Rik", "reagent": 2, "GFP, % of control": 27.3, "viability (ATP), % of control": 14.5, "Call": "inactive"}
{"gene": "2310067E19Rik", "reagent": 3, "GFP, % of control": 73.5, "viability (ATP), % of control": 71.7, "Call": "inactive"}
{"gene": "4930579C12Rik", "reagent": 1, "GFP, % of control": 104, "viability (ATP), % of control": 75.9, "Call": "inactive"}
{"gene": "4930579C12Rik", "reagent": 2, "GFP, % of control": 22.3, "viability (ATP), % of control": 21.3, "Call": "inactive"}
{"gene": "4930579C12Rik", "reagent": 3, "GFP, % of control": 146, "viability (ATP), % of control": 114, "Call": "active"}
{"gene": "Tes", "reagent": 1, "GFP, % of control": 23.4, "viability (ATP), % of control": 47.2, "Call": "inactive"}
{"gene": "Tes", "reagent": 2, "GFP, % of control": 38.9, "viability (ATP), % of control": 51.5, "Call": "inactive"}
{"gene": "Vps53", "reagent": 1, "GFP, % of control": 39, "viability (ATP), % of control": 54.7, "Call": "inactive"}
{"gene": "Vps53", "reagent": 2, "GFP, % of control": 95.8, "viability (ATP), % of control": 53.8, "Call": "inactive"}
{"gene": "Vps53", "reagent": 3, "GFP, % of control": 71.2, "viability (ATP), % of control": 69.1, "Call": "inactive"}
{"gene": "Zkscan6", "reagent": 1, "GFP, % of control": 71.2, "viability (ATP), % of control": 47.5, "Call": "inactive"}
{"gene": "Zkscan6", "reagent": 2, "GFP, % of control": 69.2, "viability (ATP), % of control": 64.2, "Call": "inactive"}
{"gene": "Zkscan6", "reagent": 3, "GFP, % of control": 55.8, "viability (ATP), % of control": 59.6, "Call": "inactive"}
{"gene": "C2cd5", "reagent": 1, "GFP, % of control": 58.4, "viability (ATP), % of control": 31.4, "Call": "inactive"}
{"gene": "C2cd5", "reagent": 2, "GFP, % of control": 77.4, "viability (ATP), % of control": 94.9, "Call": "inactive"}
{"gene": "C2cd5", "reagent": 3, "GFP, % of control": 96.8, "viability (ATP), % of control": 99.5, "Call": "inactive"}
{"gene": "Colec10", "reagent": 1, "GFP, % of control": 121, "viability (ATP), % of control": 70.3, "Call": "active"}
{"gene": "Colec10", "reagent": 2, "GFP, % of control": 53.7, "viability (ATP), % of control": 62.6, "Call": "inactive"}
{"gene": "Colec10", "reagent": 3, "GFP, % of control": 60.2, "viability (ATP), % of control": 66.5, "Call": "inactive"}
{"gene": "Zfp169", "reagent": 1, "GFP, % of control": 77.9, "viability (ATP), % of control": 73.8, "Call": "inactive"}
{"gene": "Zfp169", "reagent": 2, "GFP, % of control": 53.4, "viability (ATP), % of control": 61.8, "Call": "inactive"}

Reformatted: 4 of the entries above.
{"gene":"Tes","reagent":2,"GFP, % of control":38.9,"viability (ATP), % of control":51.5,"Call":"inactive"}
{"gene":"Vps53","reagent":1,"GFP, % of control":39,"viability (ATP), % of control":54.7,"Call":"inactive"}
{"gene":"Vps53","reagent":2,"GFP, % of control":95.8,"viability (ATP), % of control":53.8,"Call":"inactive"}
{"gene":"Vps53","reagent":3,"GFP, % of control":71.2,"viability (ATP), % of control":69.1,"Call":"inactive"}

Additional reagents:
{"gene": "Cyp2c67", "reagent": 1, "GFP, % of control": 62.7, "viability (ATP), % of control": 47.3, "Call": "inactive"}
{"gene": "Cyp2c67", "reagent": 2, "GFP, % of control": 46, "viability (ATP), % of control": 74.2, "Call": "inactive"}
{"gene": "Cyp2c67", "reagent": 3, "GFP, % of control": 72.5, "viability (ATP), % of control": 80.4, "Call": "inactive"}
{"gene": "Kansl3", "reagent": 1, "GFP, % of control": 63.5, "viability (ATP), % of control": 80.8, "Call": "inactive"}
{"gene": "Kansl3", "reagent": 2, "GFP, % of control": 48.1, "viability (ATP), % of control": 82.9, "Call": "inactive"}
{"gene": "Kansl3", "reagent": 3, "GFP, % of control": 98.2, "viability (ATP), % of control": 124, "Call": "inactive"}
{"gene": "Wfdc6b", "reagent": 1, "GFP, % of control": 65.1, "viability (ATP), % of control": 39.2, "Call": "inactive"}
{"gene": "Wfdc6b", "reagent": 2, "GFP, % of control": 90.5, "viability (ATP), % of control": 71.3, "Call": "inactive"}
{"gene": "Wfdc6b", "reagent": 3, "GFP, % of control": 91.6, "viability (ATP), % of control": 101, "Call": "inactive"}
{"gene": "Kcnk13", "reagent": 1, "GFP, % of control": 72.9, "viability (ATP), % of control": 82.7, "Call": "inactive"}
{"gene": "Kcnk13", "reagent": 2, "GFP, % of control": 60.4, "viability (ATP), % of control": 70.8, "Call": "inactive"}
{"gene": "Kcnk13", "reagent": 3, "GFP, % of control": 71, "viability (ATP), % of control": 86.4, "Call": "inactive"}
{"gene": "Lgalsl", "reagent": 1, "GFP, % of control": 86.6, "viability (ATP), % of control": 74, "Call": "inactive"}
{"gene": "Lgalsl", "reagent": 2, "GFP, % of control": 57.8, "viability (ATP), % of control": 58.1, "Call": "inactive"}
{"gene": "Lgalsl", "reagent": 3, "GFP, % of control": 96.5, "viability (ATP), % of control": 65.8, "Call": "inactive"}
{"gene": "Far1", "reagent": 1, "GFP, % of control": 48.8, "viability (ATP), % of control": 74, "Call": "inactive"}
{"gene": "Far1", "reagent": 2, "GFP, % of control": 62.5, "viability (ATP), % of control": 58.7, "Call": "inactive"}
{"gene": "Far1", "reagent": 3, "GFP, % of control": 52.5, "viability (ATP), % of control": 67.1, "Call": "inactive"}
